{"source": "paper PMC9123692", "binders": {"B1": {"name": "P-selectin glycoprotein ligand-1 (PSGL-1/CD162), incorporated into HIV-1 NL4-3 virions produced by transfection of HEK293T cells (protein, UniProt Q14242 42-412)", "chain": "QATEYEYLDYDFLPETEPPEMLRNSTDTTPLTGPGTPESTTVEPAARRSTGLDAGGAVTELTTELANMGNLSTDSAAMEIQTTQPAATEAQTTQPVPTEAQTTPLAATEAQTTRLTATEAQTTPLAATEAQTTPPAATEAQTTQPTGLEAQTTAPAAMEAQTTAPAAMEAQTTPPAAMEAQTTQTTAMEAQTTAPEATEAQTTQPTATEAQTTPLAAMEALSTEPSATEALSMEPTTKRGLFIPFSVSSVTHKGIPMAASNLSVNYPVGAPDHISVKQCLLAILILALVATIFFVCTVVLAVRLSRKGHMYPVRNYSPTEMVCISSLLPDGGEGPSATANGGLSKAKSPGLTPEPREDREGDDLTLHSFLP"}, "B2": {"name": "P-selectin glycoprotein ligand-1 (PSGL-1/CD162), endogenous, incorporated into HIV-1 IIIB virions produced in T cell lines (protein, UniProt Q14242 42-412)", "chain": "B1 chain"}, "B3": {"name": "P-selectin glycoprotein ligand-1 (PSGL-1/CD162), endogenous, incorporated into HIV-1 IIIB virions produced in primary PBMC (protein, UniProt Q14242 42-412)", "chain": "B1 chain"}}, "target": "T1, recombinant L-selectin Fc chimera (UniProt P14151)", "T1 sequence": "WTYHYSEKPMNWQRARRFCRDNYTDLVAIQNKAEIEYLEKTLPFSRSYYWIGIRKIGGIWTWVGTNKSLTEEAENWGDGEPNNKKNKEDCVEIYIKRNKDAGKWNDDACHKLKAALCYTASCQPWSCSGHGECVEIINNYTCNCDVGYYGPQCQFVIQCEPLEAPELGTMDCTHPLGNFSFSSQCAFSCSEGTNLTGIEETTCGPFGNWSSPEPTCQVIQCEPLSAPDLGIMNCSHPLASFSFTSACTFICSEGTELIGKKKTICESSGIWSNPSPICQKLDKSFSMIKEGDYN", "assay": "virion capture on immunomagnetic beads; protein G Dynabeads armed with 0.5 μg of recombinant Fc chimera (P-, E-, L-selectin or MAdCAM-1); virus-containing supernatant incubated 1-2 h at room temperature; washed with FBS-PBS; bead-associated virus lysed and p24 read by AlphaLISA; only the target purified", "note": "These are yes or no findings as the source states them, for the method shown. Some entries that bind do so weakly or less than the wild type. Where a sequence is shown, tags or fusion partners need not be part of it."}
{"binder": "B1", "values": [{"measurement": "binding", "result": "binds"}]}
{"binder": "B2", "values": [{"measurement": "binding", "result": "binds"}]}
{"binder": "B3", "values": [{"measurement": "binding", "result": "binds"}]}
